Consider 8 molecules from patent US20220041718A1 (AUTOLUS, published 2022).

No constants are given. Whether binding was seen depends on the method and setting. Some entries that bind do so weakly or less than the wild type.

The labels stand for the following.
B1: hJovi-1 variant IgG, VH N103S, T28K, Y32F, A100N; VL N35Y (antibody, V domains shown)
VH: QVQLVQSGAEVKKPGASVKVSCKASGYKFTGFVMHWVRQAPGQGLEWMGFINPYNDDIQSNERFRGRVTMTRDTSISTAYMELSRLRSDDTAVYYCARGNGYSFDGAYRFFDFWGQGTMVTVSS
VL: DIVMTQSPLSLPVTPGEPASISCRSSQRLVHSNGYTYLHWYLQKPGQSPRLLIYRVSNRFPGVPDRFSGSGSGTDFTLKISRVEAEDVGVYYCSQSTHVPYTFGQGTKLEIK
notes: IgG format
B2: hJovi-1 variant IgG, VH N103W, T28K, Y32F, A100N; VL N35F (antibody, V domains shown)
VH: QVQLVQSGAEVKKPGASVKVSCKASGYKFTGFVMHWVRQAPGQGLEWMGFINPYNDDIQSNERFRGRVTMTRDTSISTAYMELSRLRSDDTAVYYCARGNGYWFDGAYRFFDFWGQGTMVTVSS
VL: DIVMTQSPLSLPVTPGEPASISCRSSQRLVHSNGFTYLHWYLQKPGQSPRLLIYRVSNRFPGVPDRFSGSGSGTDFTLKISRVEAEDVGVYYCSQSTHVPYTFGQGTKLEIK
notes: IgG format
B3: hJovi-1 variant IgG, VH T28K Y32F A100N; VL R55K (antibody, V domains shown)
VH: QVQLVQSGAEVKKPGASVKVSCKASGYKFTGFVMHWVRQAPGQGLEWMGFINPYNDDIQSNERFRGRVTMTRDTSISTAYMELSRLRSDDTAVYYCARGNGYNFDGAYRFFDFWGQGTMVTVSS
VL: DIVMTQSPLSLPVTPGEPASISCRSSQRLVHSNGNTYLHWYLQKPGQSPRLLIYKVSNRFPGVPDRFSGSGSGTDFTLKISRVEAEDVGVYYCSQSTHVPYTFGQGTKLEIK
notes: IgG format
B4: hJovi-1 variant IgG, VH N103W, T28K, Y32F, A100N; VL N35R (antibody, V domains shown)
VH: QVQLVQSGAEVKKPGASVKVSCKASGYKFTGFVMHWVRQAPGQGLEWMGFINPYNDDIQSNERFRGRVTMTRDTSISTAYMELSRLRSDDTAVYYCARGNGYWFDGAYRFFDFWGQGTMVTVSS
VL: DIVMTQSPLSLPVTPGEPASISCRSSQRLVHSNGRTYLHWYLQKPGQSPRLLIYRVSNRFPGVPDRFSGSGSGTDFTLKISRVEAEDVGVYYCSQSTHVPYTFGQGTKLEIK
notes: IgG format
B5: hJovi-1 variant IgG, VH N103W, T28K, Y32F, A100N; VL N35K (antibody, V domains shown)
VH: QVQLVQSGAEVKKPGASVKVSCKASGYKFTGFVMHWVRQAPGQGLEWMGFINPYNDDIQSNERFRGRVTMTRDTSISTAYMELSRLRSDDTAVYYCARGNGYWFDGAYRFFDFWGQGTMVTVSS
VL: DIVMTQSPLSLPVTPGEPASISCRSSQRLVHSNGKTYLHWYLQKPGQSPRLLIYRVSNRFPGVPDRFSGSGSGTDFTLKISRVEAEDVGVYYCSQSTHVPYTFGQGTKLEIK
notes: IgG format
B6: hJovi-1 variant IgG, VH T28K, Y32F, A100N, A107S; VL unmutated (antibody, V domains shown)
VH: QVQLVQSGAEVKKPGASVKVSCKASGYKFTGFVMHWVRQAPGQGLEWMGFINPYNDDIQSNERFRGRVTMTRDTSISTAYMELSRLRSDDTAVYYCARGNGYNFDGSYRFFDFWGQGTMVTVSS
VL: DIVMTQSPLSLPVTPGEPASISCRSSQRLVHSNGNTYLHWYLQKPGQSPRLLIYRVSNRFPGVPDRFSGSGSGTDFTLKISRVEAEDVGVYYCSQSTHVPYTFGQGTKLEIK
notes: IgG format
B7: hJovi-1 variant IgG, VH T28K, G31R, Y32F, A100N; VL unmutated (antibody, V domains shown)
VH: QVQLVQSGAEVKKPGASVKVSCKASGYKFTRFVMHWVRQAPGQGLEWMGFINPYNDDIQSNERFRGRVTMTRDTSISTAYMELSRLRSDDTAVYYCARGNGYNFDGAYRFFDFWGQGTMVTVSS
VL: DIVMTQSPLSLPVTPGEPASISCRSSQRLVHSNGNTYLHWYLQKPGQSPRLLIYRVSNRFPGVPDRFSGSGSGTDFTLKISRVEAEDVGVYYCSQSTHVPYTFGQGTKLEIK
notes: IgG format
B8: hJovi-1 variant IgG, VH N103W, T28K, Y32F, A100N; VL N35M (antibody, V domains shown)
VH: QVQLVQSGAEVKKPGASVKVSCKASGYKFTGFVMHWVRQAPGQGLEWMGFINPYNDDIQSNERFRGRVTMTRDTSISTAYMELSRLRSDDTAVYYCARGNGYWFDGAYRFFDFWGQGTMVTVSS
VL: DIVMTQSPLSLPVTPGEPASISCRSSQRLVHSNGMTYLHWYLQKPGQSPRLLIYRVSNRFPGVPDRFSGSGSGTDFTLKISRVEAEDVGVYYCSQSTHVPYTFGQGTKLEIK
notes: IgG format

The target in the test is Recombinant purified TRBC2 (human). Nature of the test: SPR. For orientation: SPR reads the build-up and loss of mass on a sensor chip optically.
With B1, the binding entry is given as “binds”.

B2: the binding entry is given as “binds”.

Regarding B3, the binding entry is on record as “binds”.

In the case of B4, the binding entry is recorded as “binds”.

On to B5, for which the binding entry was “binds”. The result for B6 reads “binds”; that for B7, “binds”; that for B8, “binds”.
